# Results published in patent publication US20170327797A1, “R[…] CCCDNA, THE METHOD TO GENERATE THEREOF AND THE USE THEREOF” (priority 2015, published 2017).
# At least one structure is not confirmed: it was looked up by name or label, or the drawing left a doubt.
# Tested on: HBV (HBVcircle injected C3H/HeN mice)
# Assay: In vivo anti-HBV drug evaluation in HBVcircle HDI mice
# Conditions: 10 μg HBVcircle
# Experimental: The animals were grouped based on Day-1 body weights. On Day 0, all animals were subjected to hydrodynamic injection through tail vein within 5 seconds with 2.5-20 μg DNA in a volume (mL) of saline equivalent to 8% of body weight (g) (Liu, et al., 1999, Gene Ther, 6: 1258-66, Zhang, et al., 1999, Hum Gene Ther, 10: 1735-7). After animal exclusion due to technical failure of hydrodynamic injection or low HBV marker expression on Day 1 or Day 3, the remaining mice were maintained for long term evaluation. Blood samples were collected for serum preparation on indicated time post HDI injection.
# For compound treatment, on Day 20 post HDI (DAY-3 of compound treatment), C3H/HeN mice were divided into 4 groups based on serum HBsAg levels and body weights on DAY 20. ETV and R848 were diluted in saline from stock solutions on treatment days. Vehicle was RC591. All test compounds were given orally with indicated dose and frequency.
# HBeAg or HBsAg were measured by using the HBeAg or HBsAg ELISA kit (from Autobio) according to the manufacturer's direction.
# HBV DNA in cell culture supernatant or mouse serum was extracted using MagNA Pure 96 System MagNA Pure 96 System (from Roche). HBV DNA levels were determined via RT-PCR. The primer and probe sequences are shown below.
# Establishment of persistent high level HBV replication with HBVcircle in immune competent mice may allow evaluation of anti-HBV drugs with different mechanism of actions (MoA). To test this, we first injected C3H/HeN mice with 10 μg HBVcircle and waited for 22 days before initiation of antiviral drug treatment. On day 23, the mice were divided into four groups with 6-7 mice/group and vehicle, ETV (0.03mg/kg, QD), HAP 2 (an HBV capsid assembly inhibitor, which belongs to heteroaryldihydropyrimidine (HAP) chemical series, and was published as Example 2 in patent WO2014/037480, 10 mg/kg, QD) and R848 (Resiquimod, a TLR7 agonist, the structure was published in Hemmi et al., Nature Immunology 3, 196-200 (2002), 0.5 mg/kg, QOD) were orally given to each group of mice for 29 days.
smiles,measurement,setting,value
"CCOCc1nc2c(N)nc3ccccc3c2n1CC(C)(C)O [R848, Resiquimod]",serum HBeAg,0.5 mg/kg QOD orally,greatly reduced
same,serum HBsAg,0.5 mg/kg QOD orally,greatly reduced
same,HBV DNA in serum,0.5 mg/kg QOD orally for 29 days from day 23,efficiently reduced HBV DNA in serum to undetectable level
same,"all three HBV serum markers (HBsAg, HBeAg, HBV DNA)","0.5 mg/kg QOD orally, day 44 = 22 days on treatment",undetectable from day 44
